Data taken from patent publication US20260240846A1, “ZAK ALPHA KINASE (MAP3K20) INHIBITORS FOR USE IN THE TREATMENT OF ANEMIA” (UNIVERSIDAD DE MURCIA, priority 2023, published 2026).
At least one structure is not confirmed: it was looked up by name or label, or the drawing left a doubt.

How the values were obtained:
K562 cells = experiment: Erythroid differentiation assay in K562 cells (hemin; hemoglobin accumulation, western blot); assay type: cell-based, human; settings: indicated concentrations of TKI 24 h
Description: FIG. 1. ZAKα/P38 signaling pathway is activated in K562 after erythroid differentiation and its inhibition facilitates terminal erythroid differentiation. K562 cells were pre-treated with 0.1 μM nilotinib (Nil) (A, C, D), 1 μM anisomycin (B) and/or the indicated concentrations of the […] CX-5461 for 24 h, and then differentiated with 50 μM hemin for another 24 h. Hemoglobin accumulation (A, B, D) and NLRP1, phosphorylated P38, GATA1, ZAKα and ACTB (A-C) amounts were then evaluated by western blot. Immunoblots are representative of 3 independent experiments. #1, ACTB; #2, GATA1.
FIG. 2. The ZAKα/P38 signaling pathways is activated in K562 after erythroid differentiation. K562 cells were pre-treated with 0.1 μM nilotinib for 24 h and then differentiated with 50 μM hemin for the indicated times. The amounts of NLRP1, GATA1, phosphorylated P38, total ZAKα, phosphorylated ZAKα (Phos-tag) and ACTB were then evaluated by western blot.
FIG. 10. Imatinib and dasatinib promote erythropoiesis in human and zebrafish. (A) K562 cells were pretreated with the indicated concentrations of nilotinib, imatinib or dasatinib for 24 h and then differentiated with 50 μM hemin for 24 h. The amounts of NLRP1, GATA1, phosphorylated P38, total ZAKα and ACTB were then evaluated by western blot. (B) Zebrafish larvae were treated from 1 to 2 dpf with the indicated concentrations of nilotinib, imatinib or dasatinib. […] P values were calculated by one-way ANOVA and Tukey's multiple range test. n.s., non-significant. ***P<0.001; ****P<0.0001.
FIG. 11. […] The amounts of NLRP1, total ZAKα, GATA1, phosphorylated P38 and ACTB were then evaluated by western blot. […] P values were calculated by one-way ANOVA and Tukey's multiple range test. n.s., non-significant, *P<0.05. **P<0.01. ***P<0.001. […]
Cells were lysed in 50 mM Tris-HCl (pH 7.5), 150 mM NaCl, 1% (w/v) NP-40 and fresh protease inhibitor (1/20, #P8340, Sigma-Aldrich). Protein quantification was performed with the BCA kit using BSA as standard. […]

HSPCs from DBA patients = experiment: Colony assay of PBMCs from DBA patients in methylcellulose medium; assay type: cell-based, human; settings: 2 weeks, indicated concentrations (FIG. 13A)
Description: FIG. 13. […] PBMCs from DBA patients were incubated for 2 weeks in human methylcellulose complete medium at 37° C. in the presence or absence of the indicated concentrations of nilotinib, imatinib, dasatinib, bosutinib and ponatinib, and the number of erythroid (A) and myeloid (B) colonies counted using standard morphological criteria. Each dot represents one patient and the means±SEM for each group is also shown.

zebrafish larvae = experiment: Chemical treatment of zebrafish larvae by bath immersion; counting of neutrophils and erythrocytes; assay type: in vivo, Zebrafish (Danio rerio H.); settings: larvae 2 dpf, indicated concentrations (FIG. 11B)
Description: FIG. 3. ZAKα regulates hematopoiesis in zebrafish through the Nlrp1 inflammasome. Number of neutrophils (B, D, H), erythrocytes (F) and macrophages (J), and caspase-1 activity (K) in 2 dpf larvae either treated from 1 to 2 dpf by bath immersion with 1 μM nilotinib and/or 100 μM anisomycin (A-D) or obtained by injecting one-cell stage embryos with standard or zaka crRNAs/Cas9 complexes (E-K). Representative images of neutrophils (A, C, G), erythrocytes (E) and macrophages (I) are also shown. Each dot represents one individual and the mean±SEM for each group is also shown. P values were calculated using one-way ANOVA and Tukey's multiple range test (B) or Student's t-test (D, F, H, J, K). n.s., non-significant; *P<0.05; **P<0.01; ***P<0.001.
FIG. 6. […] (E, F) BMMCs from a DBA patient were incubated for 2 weeks in human methylcellulose complete medium at 37° C. in the presence or absence of the indicated concentrations of nilotinib, and colonies were counted using standard morphological criteria. […] P values were calculated by one-way ANOVA and Tukey's multiple range test. n.s., non-significant; *P<0.05; **P<0.01; ***P<0.001; ****P<0.0001.
FIG. 10. […] The amounts of NLRP1, GATA1, phosphorylated P38, total ZAKα and ACTB were then evaluated by western blot. […] P values were calculated by one-way ANOVA and Tukey's multiple range test. n.s., non-significant. ***P<0.001; ****P<0.0001. […]

Cc1ccc(C(=O)Nc2ccc(CN3CCN(C)CC3)c(C(F)(F)F)c2)cc1C#Cc1cnc2cccnn12 [ponatinib]
GATA1 protein amounts (K562 cells; K562 cells, then 50 μM hemin, western blot (FIG. 10A, 11A)): induce in a dose-dependent manner | phosphorylation of P38 (K562 cells; K562 cells, then 50 μM hemin, western blot (FIG. 11A)): reduced | erythroid differentiation of K562 cells (K562 cells; then 50 μM hemin (FIG. 10A, 11A)): promoted erythroid differentiation | defective erythropoiesis of HSPCs from DBA patients (erythroid colonies) (HSPCs from DBA patients): failed to do so in most patients (3 out of 5) | erythroid differentiation in zebrafish larvae (zebrafish larvae): promoted erythroid differentiation
